Publication PMC6949271
These are yes or no findings as the source states them, for the method shown. In cells and extracts the contact can be indirect. Here binding means that the protein was enriched with, or labelled near, the bait; the list need not be complete.

By UniProt entry, the sequences of proteins in these tests, tags left out.
UniProt Q92547: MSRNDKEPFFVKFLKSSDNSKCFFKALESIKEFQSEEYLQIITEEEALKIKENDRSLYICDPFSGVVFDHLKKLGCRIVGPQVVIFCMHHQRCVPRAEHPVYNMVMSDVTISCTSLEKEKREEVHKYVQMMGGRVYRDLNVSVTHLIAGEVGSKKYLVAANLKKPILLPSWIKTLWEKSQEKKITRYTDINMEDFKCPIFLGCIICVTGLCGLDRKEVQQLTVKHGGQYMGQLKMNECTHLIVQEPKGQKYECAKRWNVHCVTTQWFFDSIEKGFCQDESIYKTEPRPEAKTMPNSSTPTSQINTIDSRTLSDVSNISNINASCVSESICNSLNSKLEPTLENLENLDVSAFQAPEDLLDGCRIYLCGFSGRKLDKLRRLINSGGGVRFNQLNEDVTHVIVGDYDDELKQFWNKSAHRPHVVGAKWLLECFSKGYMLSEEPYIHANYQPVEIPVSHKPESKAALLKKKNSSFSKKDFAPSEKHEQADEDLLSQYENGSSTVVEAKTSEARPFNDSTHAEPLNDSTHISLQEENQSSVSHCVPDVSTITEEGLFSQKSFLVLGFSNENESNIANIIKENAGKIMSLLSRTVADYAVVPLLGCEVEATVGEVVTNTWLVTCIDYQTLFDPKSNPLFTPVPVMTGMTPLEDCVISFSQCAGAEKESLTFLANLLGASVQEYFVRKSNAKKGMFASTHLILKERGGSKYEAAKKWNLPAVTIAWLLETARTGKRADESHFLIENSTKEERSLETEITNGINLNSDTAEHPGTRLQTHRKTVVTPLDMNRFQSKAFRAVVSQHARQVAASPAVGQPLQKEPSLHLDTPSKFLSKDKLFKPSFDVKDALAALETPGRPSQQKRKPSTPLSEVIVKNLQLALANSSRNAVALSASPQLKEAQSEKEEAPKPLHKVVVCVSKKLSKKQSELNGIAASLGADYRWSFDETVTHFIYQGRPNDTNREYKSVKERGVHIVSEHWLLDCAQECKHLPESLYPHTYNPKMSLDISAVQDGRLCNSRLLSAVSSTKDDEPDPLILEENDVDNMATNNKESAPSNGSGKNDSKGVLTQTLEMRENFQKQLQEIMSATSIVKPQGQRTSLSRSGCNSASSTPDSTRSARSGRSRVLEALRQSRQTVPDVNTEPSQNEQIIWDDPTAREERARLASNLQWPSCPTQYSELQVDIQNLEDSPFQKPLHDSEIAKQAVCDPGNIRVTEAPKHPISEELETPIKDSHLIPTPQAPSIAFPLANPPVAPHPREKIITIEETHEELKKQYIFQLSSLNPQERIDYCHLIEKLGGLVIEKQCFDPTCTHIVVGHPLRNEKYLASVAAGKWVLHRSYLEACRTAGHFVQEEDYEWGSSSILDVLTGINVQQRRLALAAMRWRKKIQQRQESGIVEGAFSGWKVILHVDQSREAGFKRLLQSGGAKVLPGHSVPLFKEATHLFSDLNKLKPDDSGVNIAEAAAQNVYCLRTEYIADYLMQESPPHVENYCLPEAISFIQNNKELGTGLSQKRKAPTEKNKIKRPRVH

Biological target: TOPBP1, bait of the mass spectrometric analysis of TOPBP1-associated proteins (UniProt Q92547)
Experiment: affinity purification with mass spectrometry; mass spectrometric analysis of TOPBP1-associated proteins, in the presence and absence of DNA damage

B1: Treacle found by mass spectrometry among TOPBP1-associated proteins (protein, UniProt Q13428 1-1488)
chain: MAEARKRRELLPLIYHHLLRAGYVRAAREVKEQSGQKCFLAQPVTLLDIYTHWQQTSELGRKRKAEEDAALQAKKTRVSDPISTSESSEEEEEAEAETAKATPRLASTNSSVLGADLPSSMKEKAKAETEKAGKTGNSMPHPATGKTVANLLSGKSPRKSAEPSANTTLVSETEEEGSVPAFGAAAKPGMVSAGQADSSSEDTSSSSDETDVEGKPSVKPAQVKASSVSTKESPARKAAPAPGKVGDVTPQVKGGALPPAKRAKKPEEESESSEEGSESEEEAPAGTRSQVKASEKILQVRAASAPAKGTPGKGATPAPPGKAGAVASQTKAGKPEEDSESSSEESSDSEEETPAAKALLQAKASGKTSQVGAASAPAKESPRKGAAPAPPGKTGPAVAKAQAGKREEDSQSSSEESDSEEEAPAQAKPSGKAPQVRAASAPAKESPRKGAAPAPPRKTGPAAAQVQVGKQEEDSRSSSEESDSDREALAAMNAAQVKPLGKSPQVKPASTMGMGPLGKGAGPVPPGKVGPATPSAQVGKWEEDSESSSEESSDSSDGEVPTAVAPAQEKSLGNILQAKPTSSPAKGPPQKAGPVAVQVKAEKPMDNSESSEESSDSADSEEAPAAMTAAQAKPALKIPQTKACPKKTNTTASAKVAPVRVGTQAPRKAGTATSPAGSSPAVAGGTQRPAEDSSSSEESDSEEEKTGLAVTVGQAKSVGKGLQVKAASVPVKGSLGQGTAPVLPGKTGPTVTQVKAEKQEDSESSEEESDSEEAAASPAQVKTSVKKTQAKANPAAARAPSAKGTISAPGKVVTAAAQAKQRSPSKVKPPVRNPQNSTVLARGPASVPSVGKAVATAAQAQTGPEEDSGSSEEESDSEEEAETLAQVKPSGKTHQIRAALAPAKESPRKGAAPTPPGKTGPSAAQAGKQDDSGSSSEESDSDGEAPAAVTSAQVIKPPLIFVDPNRSPAGPAATPAQAQAASTPRKARASESTARSSSSESEDEDVIPATQCLTPGIRTNVVTMPTAHPRIAPKASMAGASSSKESSRISDGKKQEGPATQVSKKNPASLPLTQAALKVLAQKASEAQPPVARTQPSSGVDSAVGTLPATSPQSTSVQAKGTNKLRKPKLPEVQQATKAPESSDDSEDSSDSSSGSEEDGEGPQGAKSAHTLGPTPSRTETLVEETAAESSEDDVVAPSQSLLSGYMTPGLTPANSQASKATPKLDSSPSVSSTLAAKDDPDGKQEAKPQQAAGMLSPKTGGKEAASGTTPQKSRKPKKGAGNPQASTLALQSNITQCLLGQPWPLNEAQVQASVVKVLTELLEQERKKVVDTTKESSRKGWESRKRKLSGDQPAARTPRSKKKKKLGAGEGGEASVSPEKTSTTSKGKAKRDKASGDVKEKKGKGSLGSQGAKDEPEEELQKGMGTVEGGDQSNPKSKKEKKKSDKRKKDKEKKEKKKKAKKASTKDSESPSQKKKKKKKKTAEQTV
With B1 the binding was “binds”.
